Assay results taken from article PMC8480281.
Substitutions are numbered along the chain they refer to. Results are given in words; binding and its absence hold for the method and conditions named. Binding seen in cells or lysates may run through a third protein. Some binding calls cover weakened binding; strength is not graded here. For part of these data: Tags and fused reporters may be left off the sequences shown.

By UniProt entry, the sequences of proteins in these tests, tags left out.
UniProt Q01196: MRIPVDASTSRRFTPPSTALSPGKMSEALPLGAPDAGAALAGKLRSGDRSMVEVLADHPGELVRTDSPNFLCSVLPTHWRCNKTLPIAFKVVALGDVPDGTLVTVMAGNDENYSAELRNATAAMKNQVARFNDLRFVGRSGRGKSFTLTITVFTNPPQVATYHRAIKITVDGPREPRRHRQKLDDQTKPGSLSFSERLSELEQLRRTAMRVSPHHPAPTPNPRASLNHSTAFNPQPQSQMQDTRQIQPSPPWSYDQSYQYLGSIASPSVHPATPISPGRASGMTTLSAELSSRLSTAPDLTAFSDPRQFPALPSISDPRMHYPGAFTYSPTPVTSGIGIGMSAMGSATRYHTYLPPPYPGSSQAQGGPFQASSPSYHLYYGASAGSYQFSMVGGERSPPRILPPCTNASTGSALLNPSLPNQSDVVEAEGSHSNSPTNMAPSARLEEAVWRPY
UniProt Q04726: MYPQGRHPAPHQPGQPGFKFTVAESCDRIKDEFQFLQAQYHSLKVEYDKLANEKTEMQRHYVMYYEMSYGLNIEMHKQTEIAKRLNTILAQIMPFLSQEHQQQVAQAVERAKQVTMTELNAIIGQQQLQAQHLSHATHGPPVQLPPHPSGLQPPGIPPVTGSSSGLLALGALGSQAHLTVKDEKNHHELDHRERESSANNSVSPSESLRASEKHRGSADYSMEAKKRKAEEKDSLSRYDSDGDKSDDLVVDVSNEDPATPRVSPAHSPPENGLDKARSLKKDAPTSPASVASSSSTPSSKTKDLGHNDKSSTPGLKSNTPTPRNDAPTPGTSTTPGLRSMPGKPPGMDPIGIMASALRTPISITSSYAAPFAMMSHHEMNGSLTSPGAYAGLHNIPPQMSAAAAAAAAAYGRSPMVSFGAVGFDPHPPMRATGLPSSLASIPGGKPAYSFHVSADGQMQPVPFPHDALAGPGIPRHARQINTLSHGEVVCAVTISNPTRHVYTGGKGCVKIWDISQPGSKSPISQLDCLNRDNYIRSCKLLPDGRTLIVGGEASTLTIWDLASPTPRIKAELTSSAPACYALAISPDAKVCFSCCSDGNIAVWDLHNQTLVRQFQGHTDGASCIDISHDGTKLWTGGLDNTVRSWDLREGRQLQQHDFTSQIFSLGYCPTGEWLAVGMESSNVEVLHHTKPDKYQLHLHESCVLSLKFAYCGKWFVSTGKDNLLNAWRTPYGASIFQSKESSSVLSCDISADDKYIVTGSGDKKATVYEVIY
UniProt P49715: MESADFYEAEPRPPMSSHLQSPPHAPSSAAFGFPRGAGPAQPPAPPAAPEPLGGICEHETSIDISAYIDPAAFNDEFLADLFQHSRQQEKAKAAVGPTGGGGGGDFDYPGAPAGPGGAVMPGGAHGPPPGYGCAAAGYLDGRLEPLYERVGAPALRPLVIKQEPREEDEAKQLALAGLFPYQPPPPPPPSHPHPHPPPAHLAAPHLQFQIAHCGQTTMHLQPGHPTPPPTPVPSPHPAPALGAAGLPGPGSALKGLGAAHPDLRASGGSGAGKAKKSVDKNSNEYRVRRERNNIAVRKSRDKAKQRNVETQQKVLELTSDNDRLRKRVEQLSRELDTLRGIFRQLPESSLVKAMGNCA
UniProt Q03347: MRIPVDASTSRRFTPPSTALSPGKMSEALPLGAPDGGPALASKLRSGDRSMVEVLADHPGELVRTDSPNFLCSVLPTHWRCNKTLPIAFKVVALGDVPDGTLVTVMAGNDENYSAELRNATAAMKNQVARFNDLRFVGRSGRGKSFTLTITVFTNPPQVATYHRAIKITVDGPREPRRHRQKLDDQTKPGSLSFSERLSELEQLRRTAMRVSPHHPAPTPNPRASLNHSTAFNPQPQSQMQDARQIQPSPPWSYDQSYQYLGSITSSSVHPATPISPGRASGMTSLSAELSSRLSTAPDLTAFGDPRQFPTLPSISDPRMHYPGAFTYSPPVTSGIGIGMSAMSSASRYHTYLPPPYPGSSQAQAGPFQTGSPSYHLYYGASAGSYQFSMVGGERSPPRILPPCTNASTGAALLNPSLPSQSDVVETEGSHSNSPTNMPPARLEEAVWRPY
UniProt Q13951: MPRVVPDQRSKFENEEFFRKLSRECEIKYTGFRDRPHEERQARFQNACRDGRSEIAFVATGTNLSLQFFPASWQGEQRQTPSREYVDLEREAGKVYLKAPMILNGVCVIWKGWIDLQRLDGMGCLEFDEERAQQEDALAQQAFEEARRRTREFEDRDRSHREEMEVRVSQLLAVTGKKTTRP

Columns and labels:
[1] = molecular target: T1, FOXC1 (Forkhead box C1), endogenous (human (endogenous in Fujioka and primary AML cells)) (UniProt Q12948); test: co-IP; endogenous proteins, Fujioka cell lysate in TNN buffer (50mM Tris-Cl pH7.5, 100mM NaCl, 5mM EDTA, 0.5% Nonidet p40) with Benzonase nuclease; anti-FOXC1 or anti-RUNX1 antibody on Protein G Sepharose, 4°C overnight; western blot
T1 sequence: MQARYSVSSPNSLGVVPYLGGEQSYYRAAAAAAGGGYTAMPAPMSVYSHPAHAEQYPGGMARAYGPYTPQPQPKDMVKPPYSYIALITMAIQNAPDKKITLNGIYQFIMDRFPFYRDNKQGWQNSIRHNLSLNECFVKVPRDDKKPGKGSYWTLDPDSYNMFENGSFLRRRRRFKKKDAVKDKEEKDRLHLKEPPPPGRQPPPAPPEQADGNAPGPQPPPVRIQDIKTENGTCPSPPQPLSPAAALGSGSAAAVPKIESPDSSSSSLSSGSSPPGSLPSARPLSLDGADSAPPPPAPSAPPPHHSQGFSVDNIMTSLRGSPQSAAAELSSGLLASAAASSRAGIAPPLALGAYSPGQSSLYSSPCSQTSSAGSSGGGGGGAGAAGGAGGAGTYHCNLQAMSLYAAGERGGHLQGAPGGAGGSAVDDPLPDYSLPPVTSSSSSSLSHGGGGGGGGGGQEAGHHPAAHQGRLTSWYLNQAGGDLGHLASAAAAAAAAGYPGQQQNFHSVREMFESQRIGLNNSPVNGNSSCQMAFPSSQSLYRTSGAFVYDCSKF

[2] = molecular target: RUNX1, endogenous (human (endogenous in Fujioka and primary AML cells)) (UniProt Q01196); test: as above
[3] = molecular target: T2, FOXC1 F112S-Myc (human) (UniProt Q12948); test: co-IP; Fujioka cells infected with lentiviruses expressing full-length or mutant FOXC1-Myc; lysate in TNN buffer with Benzonase; endogenous RUNX1 and CEBPA; western blot
T2 sequence: T1 sequence with F112S

[4] = molecular target: T3, FOXC1 G165R-Myc (human) (UniProt Q12948); test: as above
T3 sequence: T1 sequence with G165R

[5] = molecular target: T4, FOXC1-Myc, full length, doxycycline-inducible lentiviral expression (human) (UniProt Q12948); test: as above
T4 sequence: T1 sequence

[6] = molecular target: T5, FOXC1 in 293 cells (UniProt Q12948); test: co-IP; 293 cells transfected with FLAG-Runx1b full-length or domain mutants; lysate in TNN buffer with Benzonase; western blot
T5 sequence: T1 sequence

| binding [1] | binding [2] | binding [3] | binding [4] | binding [5] | binding [6] | Substance |
| --- | --- | --- | --- | --- | --- | --- |
| binds | binds |  |  |  |  | Groucho co-repressor family member TLE3, endogenous (from UniProt Q04726 1-772) |
| binds |  | binds | binds | binds |  | CEBPA, endogenous (from UniProt P49715 1-358) |
|  |  |  |  |  | binds | FLAG-tagged murine Runx1b (proximal Runx1 isoform), full length (from UniProt Q03347 1-451) |
| binds |  |  |  |  |  | CBFB, endogenous (from UniProt Q13951 1-182) |
| binds |  | binds | binds | binds |  | RUNX1, endogenous (from UniProt Q01196 1-453) |
